{"source": "PubChem BioAssay AID540276", "about": "(National Center for Advancing Translational Sciences (NCATS), 2011)", "note": "Hit rate of the full screen: of about 300,000 compounds, about 5,400 (1.8%) were called active. Inconclusive results, whose numbers are uncertain, are shown with a selection of clear calls. The call rests on the fitted dose curve; tested in HEK293 cells. Potencies of inconclusive entries are doubtful fits and often do not repeat. On the % scale 0 is the no-effect control and ±100 the full control effect; potency means the concentration at half of the fitted maximal effect."}
{"assay": "qHTS for inhibitors of binding or entry into cells for Marburg Virus", "conditions": "Marburg virus pseudotyped entry inhibition, cell reporter; activity change, negative = inhibition: at 37.8 µM (top of the series) unless noted"}
{"smiles": "COc1ccc(CCNC(=O)c2ccc3c(c2)N=C(C)c2ccccc2S3)cc1OC", "activity change, negative = inhibition": "inactive: -21.2% [at 46.1 µM]"}
{"smiles": "N#Cc1ccccc1S(=O)(=O)N1CCN(C(=O)CN2C(=O)NC3(CCCC3)C2=O)CC1", "Potency": "inconclusive: 35.5 µM [activator, single point]"}
{"smiles": "Cn1c(NCc2c(O)ccc3ccccc23)nc2ccccc21", "Potency": "active: 20.6 µM"}
{"smiles": "CN(CC(=O)Nc1ccccc1Cl)C(=O)CSc1nnc(-c2ccco2)o1", "activity change, negative = inhibition": "inactive: -0.74% [at 46.1 µM]"}
{"smiles": "COc1ccc(NC(=O)c2nn(C34CC5CC(CC(C5)C3)C4)cc2[N+](=O)[O-])cc1", "Potency": "inconclusive: 15.8 µM [activator, single point]"}
{"smiles": "COc1ccc(/C=c2\\s/c(=C/C(=O)c3ccc(C)cc3)[nH]c2=O)cc1OC", "activity change, negative = inhibition": "inactive: 2.3%"}
{"smiles": "Cc1cc(Nc2cccc(C(=O)O)c2)n2nc(C)nc2n1", "Potency": "inconclusive: 3.55 µM [activator, single point]"}
{"smiles": "O=C(O)c1cccc(NCc2cccnc2)c1", "Potency": "inconclusive: 35.5 µM [activator, single point]"}
{"smiles": "Cc1ccccc1N=Cc1cccc(O)c1O", "Potency": "inconclusive: 12.6 µM [inhibitor, partial curve, poor fit]"}
{"smiles": "CCOc1ccc(N2C(=O)NC(=O)/C(=C\\c3ccc(N4CCCCC4)o3)C2=O)cc1", "Potency": "inconclusive: 10 µM [inhibitor, partial curve, poor fit]"}
{"smiles": "Cc1[nH]c(=O)c(C(=O)/C=C/c2ccccc2F)c2c1CCCC2", "Potency": "active: 11.6 µM"}
{"smiles": "CC(C)Cn1c(SCC(=O)N2CCCc3ccccc32)nc2ccccc2c1=O", "Potency": "inconclusive: 17.8 µM [inhibitor, partial curve, poor fit]"}
{"smiles": "Cc1ccc(-c2cc(C(=O)NCc3ccc4c(c3)OCO4)[nH]n2)c(O)c1C", "activity change, negative = inhibition": "inactive: -26.7%"}
{"smiles": "COc1cccc(NC(=S)NCCC(c2ccccc2)c2ccccc2)c1", "Potency": "inconclusive: 35.5 µM [inhibitor, single point]"}
{"smiles": "O=C(Nc1cc(S(=O)(=O)N2CCOCC2)ccc1N1CCOCC1)c1ccc(S(=O)(=O)N2CCCCC2)cc1", "Potency": "inconclusive: 5.62 µM [activator, single point]"}
{"smiles": "Nc1nc(Nc2cccc(F)c2)nc2ccccc12", "Potency": "inconclusive: 22.4 µM [inhibitor, partial curve, poor fit]"}
{"smiles": "Cc1cc(S(=O)(=O)NC2CCN(Cc3ccccc3)CC2)c(C)cc1Cl", "Potency": "inconclusive: 35.5 µM [inhibitor, single point]"}
{"smiles": "CC1Cc2cc(/C(O)=C3/C(=O)C(=O)N(CCN4CCOCC4)C3c3cccc(Cl)c3)ccc2O1", "note": "(centres undefined)", "activity change, negative = inhibition": "inactive: 22.1%"}
{"smiles": "COc1ccc(NC(=O)C(c2cc3c(cc2[N+](=O)[O-])OCO3)N(C)Cc2ccccc2)cc1", "note": "(centres undefined)", "Potency": "inconclusive: 15.8 µM [inhibitor, partial curve]"}
{"smiles": "COCC(C)n1c(C)cc(C(=O)CSc2nnc(N)s2)c1C", "note": "(centres undefined)", "Potency": "inconclusive: 35.5 µM [inhibitor, single point]"}
{"smiles": "COc1cc(C)c(CNc2cc(C)cc(C)c2)cc1C", "Potency": "inconclusive: 16.4 µM [inhibitor, partial curve, poor fit]"}
{"smiles": "CN(C)/C=C/C(=O)c1ccc(Cl)c([N+](=O)[O-])c1", "activity change, negative = inhibition": "inactive: -8.54% [at 46.1 µM]"}
{"smiles": "CCSC(=O)N1c2ccc(OC)cc2C=CC1C#N", "note": "(centres undefined)", "Potency": "inconclusive: 0.112 µM [inhibitor, full curve, poor fit]"}
{"smiles": "Cc1ccc(NC(=O)C2=NNC(=O)CC2)cc1S(=O)(=O)Nc1ccc(SC(F)F)cc1", "Potency": "inconclusive: 5.62 µM [inhibitor, single point]"}
{"smiles": "O=[N+]([O-])c1ccccc1/C=N/n1c(COc2ccccc2)n[nH]c1=S", "Potency": "inconclusive: 0.224 µM [inhibitor, full curve, poor fit]"}
{"smiles": "COC(=O)c1sccc1S(=O)(=O)Nc1ccc(S(N)(=O)=O)cc1", "activity change, negative = inhibition": "inactive: -1.5%"}
{"smiles": "Cc1ccc(Nc2c3c(nc4ccccc24)CCC3)cc1", "Potency": "active: 11.2 µM"}
{"smiles": "CC(C)(C)c1cc2cccnc2n1Cc1ccccc1", "Potency": "inconclusive: 7.08 µM [inhibitor, full curve, poor fit]"}
{"smiles": "O=C(CNC(=O)c1cccc(S(=O)(=O)N2CCc3ccccc32)c1)Nc1ccc(F)c(F)c1F", "Potency": "inconclusive: 3.98 µM [inhibitor, full curve, poor fit]"}
{"smiles": "C/C(Cn1cnc([N+](=O)[O-])n1)=N/NC(=O)COc1c(Cl)cc(Cl)cc1Cl", "activity change, negative = inhibition": "inactive: 11.2%"}
{"smiles": "Cn1nc([N+](=O)[O-])nc1Oc1ccc2ccccc2c1", "activity change, negative = inhibition": "inactive: -7.2%"}
{"smiles": "CCOc1cccc2sc(N(CCCN(C)C)C(=O)c3ccc(S(=O)(=O)N(C)Cc4ccccc4)cc3)nc12", "Potency": "inconclusive: 22.4 µM [inhibitor, single point]"}
{"smiles": "CCn1c(SCC(=O)Nc2cccc(C)c2)nc2c(c1=O)SC(C)C2", "note": "(centres undefined)", "Potency": "inconclusive: 29.1 µM [inhibitor, partial curve, poor fit]"}
{"smiles": "O=[N+]([O-])c1ccc(C[n+]2ccc(Cc3ccccc3)cc2)cc1", "activity change, negative = inhibition": "inactive: -5.17%"}
{"smiles": "Cn1cccc1-c1nc2ccccc2[nH]1", "Potency": "inconclusive: 15.8 µM [activator, single point]"}
{"smiles": "COc1ccc(NS(=O)(=O)c2cc(NC(=O)c3cnc(C)cn3)ccc2N2CCCCC2)cc1", "Potency": "inconclusive: 8.2 µM [inhibitor, partial curve, poor fit]"}
{"smiles": "NC(C(=O)O)C(O)c1ccc(O)c(O)c1", "note": "(centres undefined)", "Potency": "active: 1.25 µM"}
{"smiles": "Clc1cccc(C2CCN(Cc3nc(CC4CC4)no3)C2)c1", "note": "(centres undefined)", "Potency": "inconclusive: 15.8 µM [activator, single point]"}
{"smiles": "COc1ccc(NC(=O)Cn2cc(C(=O)c3ccc(C)c(C)c3)c(=O)c3cc(OC)ccc32)cc1", "activity change, negative = inhibition": "inactive: 15.8% [at 46.1 µM]"}
{"smiles": "Cn1c(=O)cc(OCCCC(=O)N2CCN(c3ccccc3)CC2)c2ccccc21", "Potency": "inconclusive: 29.1 µM [activator, single point]"}
{"smiles": "COCCCNC(=S)NCCNc1nc2cc(C)c(C)cc2cc1C#N", "Potency": "inconclusive: 5.62 µM [activator, single point]"}
{"smiles": "CC(=O)Oc1c(I)cc(I)cc1C(=O)Nc1ccc(Cl)cc1", "Potency": "inconclusive: 35.5 µM [inhibitor, single point]"}
{"smiles": "O=C(OCC(=O)c1c[nH]c2ccccc12)c1ccc(Br)o1", "activity change, negative = inhibition": "inactive: -1.19%"}
{"smiles": "COc1ccc(S(=O)(=O)NCCN2CCOCC2)c2ccccc12", "activity change, negative = inhibition": "inactive: -0.422%"}
